Measurements reported in PubChem BioAssay AID504791 (Drosophila RNAi Screening Center, 2011)

- Screen: 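Factors in Argonaute-based small RNA production and activity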 (primary screen)
- System: Drosophila S2-derived reporter cells
- Reagent: long dsRNA against Drosophila genes, about 150-250 ng dsRNA per well (siRNA assay); about 80-120 ng (miRNA assay)
- Duration: about 5 days (siRNA assay); about 4 days (miRNA assay)
- Treatment: copper sulfate induction of reporters: 25 µM (siRNA assay); 200 mM stated (miRNA assay), 1-2 days before reading
- Measurement: 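Dual luciferase assay: Renilla to firefly signal ratio in each well, scaled to the mean ratio of its plate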
- Rule for the call: 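First-pass picks had plate-scaled ratios over 1.5 for the siRNA assay, over 1.6 for the miRNA assay, or under 0.6; two distinct dsRNAs had to score alike on retest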
The deposit covers about 23,000 reagents; shown is a random part of those with a known target gene and a result. In the full data, 199 (0.86%) were called active. 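Plate-scaled ratios behind the calls are not deposited; printed light signals are raw; many rows marked increased or decreased are still called inactive.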 The numbers tell different reagents against one gene apart. A plus sign joins genes that one reagent is predicted to hit. Not given: the direction of the score.

Depletion of CG4477 resulted in: stable assay Renilla, run 1 (luminescence) = 7807; stable assay firefly, run 1 (luminescence) = 5.98e5; inactive.
After knock-down of Cyp4c3 (Cytochrome P450 4c3), the screen gave stable assay Renilla, run 1 (luminescence) = 6615; stable assay firefly, run 1 (luminescence) = 3.69e5; inactive.
Silencing of CG14332 gave: stable assay Renilla, run 1 (luminescence) = 6379; stable assay firefly, run 1 (luminescence) = 3.27e5; inactive.
After knock-down of CG13386 the results were stable assay Renilla, run 1 (luminescence) = 7139; stable assay firefly, run 1 (luminescence) = 3.23e5; inactive.
After knock-down of CG7231, the screen gave stable assay Renilla, run 1 (luminescence) = 7147; stable assay firefly, run 1 (luminescence) = 3.16e5; inactive.
For MetRS-m (Methionyl-tRNA synthetase, mitochondrial) #1 the deposit lists stable assay Renilla, run 1 (luminescence) = 8243; stable assay firefly, run 1 (luminescence) = 4.22e5; inactive.
After knock-down of MetRS-m (Methionyl-tRNA synthetase, mitochondrial) #2, the record shows stable assay Renilla, run 1 (luminescence) = 7586; stable assay firefly, run 1 (luminescence) = 6.18e5; inactive.
CG18814 gave stable assay Renilla, run 1 (luminescence) = 7144; stable assay firefly, run 1 (luminescence) = 4.87e5; inactive.
Miox (Myo-inositol oxygenase) gave stable assay Renilla, run 1 (luminescence) = 5978; stable assay firefly, run 1 (luminescence) = 3.49e5; inactive.
CG8298 scored stable assay Renilla, run 1 (luminescence) = 5036; stable assay firefly, run 1 (luminescence) = 2.87e5; inactive.
Knock-down of fd96Ca (forkhead domain 96Ca) came out at: stable assay Renilla, run 1 (luminescence) = 6871; stable assay firefly, run 1 (luminescence) = 3.99e5; inactive.

Looked up above:
CG14332, outcome: inactive
Value of CG13386 under “stable assay firefly, run 1 (luminescence)”: 3.23e5
For “stable assay firefly, run 1 (luminescence)”, MetRS-m (Methionyl-tRNA synthetase, mitochondrial) #1 reads 4.22e5

Additional entries:
For CG6931 the deposit lists stable assay Renilla, run 1 (luminescence) = 7346; stable assay firefly, run 1 (luminescence) = 3.30e5; inactive.
After knock-down of ImpE1 (Ecdysone-inducible gene E1) #1, the screen gave stable assay Renilla, run 1 (luminescence) = 6556; stable assay firefly, run 1 (luminescence) = 4.06e5; inactive.
With knock-down of ImpE1 (Ecdysone-inducible gene E1) #2, the record shows stable assay Renilla, run 1 (luminescence) = 6327; stable assay firefly, run 1 (luminescence) = 4.99e5; inactive.
CG10139 scored stable assay Renilla, run 1 (luminescence) = 9678; stable assay firefly, run 1 (luminescence) = 6.24e5; inactive.
With knock-down of Cda5 (Chitin deacetylase-like 5) #1, the record shows stable assay Renilla, run 1 (luminescence) = 4447; stable assay firefly, run 1 (luminescence) = 3.36e5; inactive.
With knock-down of Cda5 (Chitin deacetylase-like 5) #2, the screen gave stable assay Renilla, run 1 (luminescence) = 8635; stable assay firefly, run 1 (luminescence) = 4.50e5; inactive.
Depletion of Cda5 (Chitin deacetylase-like 5) #3 resulted in: stable assay Renilla, run 1 (luminescence) = 8019; stable assay firefly, run 1 (luminescence) = 3.84e5; inactive.
For Cda5 (Chitin deacetylase-like 5) #4 the deposit lists stable assay Renilla, run 1 (luminescence) = 9598; stable assay firefly, run 1 (luminescence) = 4.57e5; inactive.
Cap-D2 (CAP-D2 condensin subunit) showed stable assay Renilla, run 1 (luminescence) = 9359; stable assay firefly, run 1 (luminescence) = 5.35e5; inactive.
CG32706 + CG6999 scored stable assay Renilla, run 1 (luminescence) = 5900; stable assay firefly, run 1 (luminescence) = 4.96e5; inactive.
Depletion of CG33791 + CG12105 + CG18170 gave: stable assay Renilla, run 1 (luminescence) = 11594; stable assay firefly, run 1 (luminescence) = 3.82e5; inactive.
For CG6996, the entry reads stable assay Renilla, run 1 (luminescence) = 6998; stable assay firefly, run 1 (luminescence) = 4.31e5; inactive.
CG14125 scored stable assay Renilla, run 1 (luminescence) = 6583; stable assay firefly, run 1 (luminescence) = 3.53e5; inactive.
With knock-down of pix (pixie) the results were stable assay Renilla, run 1 (luminescence) = 4527; stable assay firefly, run 1 (luminescence) = 4.13e5; inactive.
Against Girdin the deposit lists stable assay Renilla, run 1 (luminescence) = 5795; stable assay firefly, run 1 (luminescence) = 3.57e5; inactive.
Knock-down of CG31937 gave: stable assay Renilla, run 1 (luminescence) = 13811; stable assay firefly, run 1 (luminescence) = 5.21e5; inactive.
After knock-down of CG33257, the record shows stable assay Renilla, run 1 (luminescence) = 7931; stable assay firefly, run 1 (luminescence) = 3.73e5; inactive.
